# In all, about 410,000 compounds went through this assay and about 18,000 (4.4%) were called active. Inconclusive results, whose numbers are uncertain, are shown with a selection of clear calls. Rule as the data show it: active = activity change below about -60%; inconclusive = no clear call, values can overlap the other calls; inactive = above about -39%. More than one record can exist for a structure, and the calls need not agree.
# Assay: qHTS Assay for inhibitors of the human cytomegalovirus (HCMV)
# Conditions: HFF cells, HCMV-luciferase reporter, 72 h; at 57.5 µM; hits give low values
# How it was run: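 After 16 h attachment at 37C, HFF cells received test compound and HCMV-luciferase (1 PFU/cell); reporter luminescence read 72 h later, data normalized against buffer-only and known inhibitor Salinomycin.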
# % is scaled to controls: 0 for no effect and ±100 for the full control effect.
row,Compound,"activity change, negative = inhibition"
1,COc1ccc(N(CC(=O)NCCC2=CCCCC2)S(=O)(=O)c2ccccc2)cc1,inconclusive: -50.7%
2,Cn1c(=O)c2cc(NC(=O)NCc3ccccc3)ccc2n1Cc1ccc(Cl)cc1,inactive: 29.9%
3,Cc1cc(Cl)c(C(=O)Nc2cccc(C(F)(F)F)c2)c(C)n1,inconclusive: -51.8%
4,COc1ccc(NC(=O)C2CCCN(S(=O)(=O)c3ccc4c(c3)CC(C)N4C(C)=O)C2)cc1 (stereo not given),inconclusive: -42.5%
5,Cc1ccc(NC(=O)c2ccc(Cn3cc([N+](=O)[O-])cn3)cc2)c(C)c1,inconclusive: -45.3%
6,CC(C)(C)c1ccc(C(=O)NC(Cc2c[nH]c3ccccc23)C(=O)OCC(=O)c2ccc(Cl)cc2)cc1 (stereo not given),inconclusive: 0%
7,C/C(N=Nc1nc2ccccc2s1)=N\Nc1ccccc1O,inconclusive: -57.6%
8,O=c1[nH]c(=O)n(Cc2ccccc2Cl)c(O)c1/C=C1/C=CC=N1,active: -88.8%
9,COc1ccc(N(CC(=O)N2CCN(c3ccc(F)cc3)CC2)S(=O)(=O)c2c(C)n[nH]c2C)cc1,inconclusive: -58%
10,CCN1CCN(c2ccc(NC(=O)CCc3c(C)nc4c(-c5ccccc5)c(C)nn4c3C)cc2)CC1,inconclusive: -58.3%
11,CCOC(=O)C1=C(C)NC(=S)NC1c1ccc(C)s1 (stereo not given),inconclusive: -52.7%
12,c1cncc(CNc2cccc(-c3nc4ccccc4[nH]3)c2)c1,inactive: -17.6%
13,CO/N=C/C(C#N)=C/c1cc(C(=O)c2ccc(F)cc2)cn1C,inconclusive: -49.5%
14,COc1cc(NC(=S)NCc2cccs2)cc(OC)c1,inactive: -10.4%
15,C[C@H]1CCC(=O)N([C@H](COc2ccccc2)Cc2ccccc2)CC1,inconclusive: -59.4%
16,CCCCc1nc2ccccc2n1CC(=O)N(COCC)c1c(C)cccc1CC,inconclusive: -46.2%
17,COc1ccc(-c2ccc(CN3C(CC(C)C)C(=O)N(Cc4cn(CCC5OCCO5)nn4)CCS3(=O)=O)cc2)cc1OC (stereo not given),active: -62.2%
18,O=C(Cn1cnc2ccccc21)Nc1cccc([N+](=O)[O-])c1,inconclusive: -50.9%
19,CCCCn1nnnc1C(CCc1ccccc1)N1CCC(n2c(=O)[nH]c3ccccc32)CC1 (stereo not given),active: -101%
20,CC(=O)Nc1ccc(S(=O)(=O)N(C)CC(=O)OC(C)C(=O)N(C)Cc2ccccc2)cc1 (stereo not given),inconclusive: -45.1%
21,COc1ccc(-n2c(SCC(=O)Nc3nccs3)nnc2-c2ccc(Cl)cc2)cc1,inconclusive: -44.9%
22,CSc1ncc(C(=O)Nc2cc(Cl)ccc2C)c(-c2ccccc2)n1,inconclusive: -42.4%

row,Compound,"activity change, negative = inhibition"
1,COc1ccc(NC(=O)C(=O)NCCC2CCCCN2S(=O)(=O)c2cccs2)cc1 (stereo not given),inconclusive: -51.1%
2,O=C(NC1=NCCS1)c1ccc(Cl)c(S(=O)(=O)N2CCCCCC2)c1,inconclusive: -56.5%
3,CC(C)N(Cc1nc(-c2ccccc2)no1)C(=O)c1ccc(Cl)cc1,active: -89.3%
4,OC1CCCN(CC(O)COC(c2ccc(F)cc2)c2ccc(F)cc2)C1 (stereo not given),inactive: 24.4%
5,CCOc1ccc(NC(=O)Cn2c(=O)n(CCCC(=O)NC3CCN(Cc4ccccc4)CC3)c(=O)c3ccccc32)cc1,inactive: -6.89%
6,O=C(NCCOc1nc(N2CCCCC2)nc(N2CCCCC2)n1)Nc1ccccc1,inconclusive: -54.1%
7,Cc1ccc(-c2oc3ccccc3c(=O)c2O)cc1,inconclusive: -50.7%
8,Cc1cc(C)c(C(=O)COc2cccnc2[N+](=O)[O-])cc1C,inactive: -33.3%
9,CC(C)(C)C1CCC(C(=O)Nc2ccccc2)CC1 (stereo not given),inconclusive: -40.8%
10,CC(C)C(=O)Nc1cccc(NC(=O)c2ccc(Cl)cc2Cl)c1,inconclusive: -40.7%
11,COc1cc(CCC(=O)Nc2sccc2C#N)cc(OC)c1OC,inconclusive: -42.1%
12,CCOC(=O)c1ccc(NC(=O)c2ccc(C)c(S(=O)(=O)N3CCOCC3)c2)cc1,inconclusive: -46.4%
13,FC(F)(F)c1cccc(-c2cc(C3CCNCC3)[nH]n2)c1,active: -72.5%
14,COc1ccc(-c2csc(Nc3ccccn3)n2)cc1,inconclusive: -54.1%
15,CCN(CCN(C)C)C(=O)C1CCN(S(=O)(=O)c2c(C)noc2/C=C/c2ccccc2F)CC1,active: -99.4%
16,O=C(Nc1ncc(Cc2ccccc2Cl)s1)C1=NCCN1,inconclusive: -55.1%
17,Cc1ccc(Cc2c(C)nc3c(-c4ccccc4)c(C)[nH]n3c2=O)cc1,active: -72.8%
18,CCOc1ccccc1CNC(=O)C1CCN(C(=O)c2sccc2-n2cccc2)CC1,inconclusive: -44.1%
19,Cc1cc(C)c(C)c(S(=O)(=O)N2CCN(C(=O)CCC(=O)N3CCOCC3)CC2)c1C,inconclusive: -40.7%
20,Cc1ccoc1C(=O)Nc1ccc(CC(=O)O)cc1,inconclusive: -49%
21,COc1ccc(-c2nc(C)sc2CC(=O)O)cc1,active: -82.5%
22,O=[N+]([O-])c1ccc(Cl)c(C2Nc3cccc4cccc(c34)N2)c1,active: -81.5%

row,Compound,"activity change, negative = inhibition"
1,COc1ccc(-n2c(C)cc(/C=C3\C(=N)N4N=C(CC(=O)N5CCOCC5)SC4=NC3=O)c2C)cc1,inactive: -26.4%
2,CCOc1ccccc1NC(=O)C(OC(=O)C1CC1)c1ccccc1 (stereo not given),inconclusive: -45.7%
3,CCCCN(CC)CCNC(=O)C1CCN(c2nnc(C)c3c(C)n(-c4ccc(C)cc4)nc23)CC1,inconclusive: -45.3%
4,CC(=O)O[C@@]1(C)C[C@@H](O)[C@]2(O)C=CO[C@@H](O[C@@H]3O[C@H](CO)[C@@H](O)[C@H](O)[C@H]3O)[C@@H]21,inconclusive: -55.3%
5,CCOC(=O)c1c(N)sc(C(=O)Nc2ccccc2F)c1C,inactive: 96.6%
6,CC(=O)Nc1ccc(S(=O)(=O)NCC(=O)OCC(=O)N2CC(C)OC(C)C2)cc1 (stereo not given),inconclusive: -41.6%
7,C=C1CCC[C@]2(C)C[C@H]3OC(=O)C(CNCC(OC)OC)[C@H]3CC12 (stereo not given in full),inactive: -30.2%
8,Cc1cccc(C(=O)N2CCC(=O)N(C(COCc3cccc(C(F)(F)F)c3)Cc3ccccc3)CC2)c1 (stereo not given),inconclusive: -45.9%
9,COc1ccc(S(=O)(=O)Nc2ccc(Nc3ccccc3)cc2)cc1,active: -69.6%
10,CCCN(CCC)S(=O)(=O)c1ccc(C(=O)Nc2nc3c(s2)CCc2ccccc2-3)cc1,active: -72.1%
11,O=C(CCSc1ccccc1)Nc1ccc(S(=O)(=O)Nc2ncccn2)cc1,inconclusive: -46.7%
12,Cc1ccc(C)c(N(CC(=O)NN=C2CCN(C)CC2)S(=O)(=O)c2ccccc2)c1,inconclusive: -47%
13,Cc1ccc(C2C(C#N)=C(N)N(c3cccnc3)C3=C2C(=O)CCC3)s1 (stereo not given),inconclusive: -42.6%
14,O=C(N/N=C/c1ccco1)c1ccc(OCc2ccccc2)cc1,inactive: 22%
15,CCN1CCN(CCNC(=O)c2ccc(/C=C3/Sc4ccccc4N(Cc4ccccc4C)C3=O)cc2)CC1,active: -62.6%
16,Cc1cc(-c2ccc(C)c(S(=O)(=O)N3c4ccccc4CC3C)c2)on1 (stereo not given),inconclusive: 0%
17,O=C(NNC(=S)Nc1ccc(Cl)cc1)c1cccs1,inconclusive: -45.2%
18,CC(C)Oc1ccc(Br)cc1/C=N\NC(N)=S,inconclusive: -44.5%
19,Cc1ccc(N2C(=O)c3ccccc3C2=O)cc1,inconclusive: -50.2%
20,CCN(CC)c1cc(C)c2cc(NC(=O)/C=C/c3ccccc3OC(C)C)ccc2n1,inconclusive: -55.1%
21,CCn1c(COc2ccc(C)cc2)nnc1SCc1ccc(C#N)cc1,inconclusive: -40.1%
22,CC(CNC1CCCCC1)OC(=O)c1ccccc1 (stereo not given),inconclusive: -41.6%

row,Compound,"activity change, negative = inhibition"
1,O=C(CS(=O)(=O)c1c[nH]c2ccccc12)NC1CCCCC1,inconclusive: -40.5%
2,Cc1nc(SCc2ccc([N+](=O)[O-])cc2)nc2ccccc12,inconclusive: -44.4%
3,Cc1cccc(OCCSc2nc3ccc(NC(=O)COc4ccccc4F)cc3s2)c1,inconclusive: -45.1%
4,Cc1cc2c(ccc3[nH]onc32)n1,inactive: -32.8%
5,CCOc1ccc(CCNC(=O)CCN2N=C(c3ccc(OC)cc3)CCC2=O)cc1OCC,inconclusive: -54.6%
6,COc1ccccc1-n1cnc2cc(NS(=O)(=O)c3ccc(Br)cc3)ccc21,inactive: 9.12%
7,COC(=O)CC1Oc2ccc(C)cc2-n2cc(-c3ccc(F)cc3)nc21 (stereo not given),inconclusive: -41.3%
8,C/C(=N\Nc1ccc(C(=O)O)cc1)c1ccc(Cl)s1,inactive: 249%
9,COc1cc(C(=O)NNC(=O)COc2cccc(F)c2)ccc1OCC(=O)N1CCOCC1,active: -69.6%
10,O=C(NCC(=O)N(c1ccc(F)cc1)C(C(=O)NC1CCCC1)c1cccnc1)c1cccs1 (stereo not given),inconclusive: -47.2%
11,O=C(CO/N=C/c1ccccc1)N1c2ccccc2Oc2ccccc21,active: -98.9%
12,COc1ccc(N2CCC(CNC(=S)Nc3cccc(C)c3)C2)cc1 (stereo not given),inconclusive: -54.3%
13,Cc1ccc(NC(=S)NCCc2ccccc2)c(C)c1,inconclusive: -48%
14,COc1ccc(CN(Cc2ccco2)c2cnc(S(C)(=O)=O)nc2C(=O)Nc2ccc(C)c(C)c2)cc1,inactive: 35.5%
15,COc1cc(/C=C2\SC(=S)N(N(C)c3ccccc3)C2=O)ccc1O,active: -101%
16,Cc1ccc(Cl)cc1NC(=O)Cn1cc2c(n1)CCCCC2,inactive: -15.3%
17,CC(=O)NCCNC(=O)c1cccc(NS(=O)(=O)c2ccc3c(c2)OCCO3)c1,inactive: -16.6%
18,Cc1noc2ncnc(N3CCN(c4ccccc4F)CC3)c12,inconclusive: -43%
19,NNCc1cccc(O)c1,inconclusive: -54.9%

# 4 entries from above in a different format:
row	Compound	activity change, negative = inhibition
12	COc1ccc(N2CCC(CNC(=S)Nc3cccc(C)c3)C2)cc1 (stereo not given)	inconclusive: -54.3%
13	Cc1ccc(NC(=S)NCCc2ccccc2)c(C)c1	inconclusive: -48%
14	COc1ccc(CN(Cc2ccco2)c2cnc(S(C)(=O)=O)nc2C(=O)Nc2ccc(C)c(C)c2)cc1	inactive: 35.5%
15	COc1cc(/C=C2\SC(=S)N(N(C)c3ccccc3)C2=O)ccc1O	active: -101%

# — PubChem BioAssay AID1259415 (National Center for Advancing Translational Sciences (NCATS), 2018)
